For 1 substance, binding results are on record in article PMC3125256.

The target of assay [1] is FLAG-tagged GPR54 (UniProt Q969F8). Description: co-IP; HEK 293 cells co-transfected with FLAG-GPR54 and EGFR-EGFP, serum-starved 4 h, with or without Kp-10 (100 nM); lysis in 20 mM HEPES, 150 mM NaCl, 1.5 mM MgCl2, 1% Triton X-100; anti-FLAG antibody and protein G-Sepharose overnight at 4°C; blot with anti-GFP.
Assay [2] concerns the target GPR54-ECFP (UniProt Q969F8). Nature of the assay: FRET or BRET; sensitized emission PFRET in live HEK 293 cells co-expressing GPR54-ECFP (donor) and EGFR-EGFP (acceptor), 37°C, serum-starved 4 h; analysed at the plasma membrane; unstimulated or stimulated with Kp-10 (100 nM; 10 nM data not shown) or EGF (10 ng/ml) for 5 and 15 min. (In BRET a luciferase serves as donor, and the signal depends on an acceptor being close.)

No constants are given. Whether binding was seen depends on the method and setting. In cells and extracts the contact can be indirect. Some binding calls cover weakened binding; strength is not graded here.

As for “EGFR-EGFP (from UniProt P00533 25-1210) (receptor)”, the binding entry in assay [1] and in assay [2] was “binds” throughout.
